# Reference: the supplement of paper PMC12067093, “Discovery and optimisation of a covalent ligand for TRIM25 and its application to targeted protein ubiquitination” (Chemical Science, 2025)
# Protein sequences, listed by entry. Tags and fused reporters are not part of them. Lines headed by an entry give the natural chain unless they say otherwise; changes in a name come on top.
# UniProt O00148, whole entry, looked up: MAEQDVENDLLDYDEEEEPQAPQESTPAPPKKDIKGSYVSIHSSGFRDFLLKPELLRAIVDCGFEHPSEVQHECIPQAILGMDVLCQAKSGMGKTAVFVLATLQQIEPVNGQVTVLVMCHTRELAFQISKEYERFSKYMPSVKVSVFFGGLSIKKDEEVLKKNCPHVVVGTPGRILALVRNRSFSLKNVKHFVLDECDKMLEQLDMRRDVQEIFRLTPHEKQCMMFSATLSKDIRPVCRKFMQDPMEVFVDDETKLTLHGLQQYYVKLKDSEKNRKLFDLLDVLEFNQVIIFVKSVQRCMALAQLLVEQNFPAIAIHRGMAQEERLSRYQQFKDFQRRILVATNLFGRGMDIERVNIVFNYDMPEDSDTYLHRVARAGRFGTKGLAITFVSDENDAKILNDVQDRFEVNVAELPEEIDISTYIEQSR
# UniProt Q7Z401: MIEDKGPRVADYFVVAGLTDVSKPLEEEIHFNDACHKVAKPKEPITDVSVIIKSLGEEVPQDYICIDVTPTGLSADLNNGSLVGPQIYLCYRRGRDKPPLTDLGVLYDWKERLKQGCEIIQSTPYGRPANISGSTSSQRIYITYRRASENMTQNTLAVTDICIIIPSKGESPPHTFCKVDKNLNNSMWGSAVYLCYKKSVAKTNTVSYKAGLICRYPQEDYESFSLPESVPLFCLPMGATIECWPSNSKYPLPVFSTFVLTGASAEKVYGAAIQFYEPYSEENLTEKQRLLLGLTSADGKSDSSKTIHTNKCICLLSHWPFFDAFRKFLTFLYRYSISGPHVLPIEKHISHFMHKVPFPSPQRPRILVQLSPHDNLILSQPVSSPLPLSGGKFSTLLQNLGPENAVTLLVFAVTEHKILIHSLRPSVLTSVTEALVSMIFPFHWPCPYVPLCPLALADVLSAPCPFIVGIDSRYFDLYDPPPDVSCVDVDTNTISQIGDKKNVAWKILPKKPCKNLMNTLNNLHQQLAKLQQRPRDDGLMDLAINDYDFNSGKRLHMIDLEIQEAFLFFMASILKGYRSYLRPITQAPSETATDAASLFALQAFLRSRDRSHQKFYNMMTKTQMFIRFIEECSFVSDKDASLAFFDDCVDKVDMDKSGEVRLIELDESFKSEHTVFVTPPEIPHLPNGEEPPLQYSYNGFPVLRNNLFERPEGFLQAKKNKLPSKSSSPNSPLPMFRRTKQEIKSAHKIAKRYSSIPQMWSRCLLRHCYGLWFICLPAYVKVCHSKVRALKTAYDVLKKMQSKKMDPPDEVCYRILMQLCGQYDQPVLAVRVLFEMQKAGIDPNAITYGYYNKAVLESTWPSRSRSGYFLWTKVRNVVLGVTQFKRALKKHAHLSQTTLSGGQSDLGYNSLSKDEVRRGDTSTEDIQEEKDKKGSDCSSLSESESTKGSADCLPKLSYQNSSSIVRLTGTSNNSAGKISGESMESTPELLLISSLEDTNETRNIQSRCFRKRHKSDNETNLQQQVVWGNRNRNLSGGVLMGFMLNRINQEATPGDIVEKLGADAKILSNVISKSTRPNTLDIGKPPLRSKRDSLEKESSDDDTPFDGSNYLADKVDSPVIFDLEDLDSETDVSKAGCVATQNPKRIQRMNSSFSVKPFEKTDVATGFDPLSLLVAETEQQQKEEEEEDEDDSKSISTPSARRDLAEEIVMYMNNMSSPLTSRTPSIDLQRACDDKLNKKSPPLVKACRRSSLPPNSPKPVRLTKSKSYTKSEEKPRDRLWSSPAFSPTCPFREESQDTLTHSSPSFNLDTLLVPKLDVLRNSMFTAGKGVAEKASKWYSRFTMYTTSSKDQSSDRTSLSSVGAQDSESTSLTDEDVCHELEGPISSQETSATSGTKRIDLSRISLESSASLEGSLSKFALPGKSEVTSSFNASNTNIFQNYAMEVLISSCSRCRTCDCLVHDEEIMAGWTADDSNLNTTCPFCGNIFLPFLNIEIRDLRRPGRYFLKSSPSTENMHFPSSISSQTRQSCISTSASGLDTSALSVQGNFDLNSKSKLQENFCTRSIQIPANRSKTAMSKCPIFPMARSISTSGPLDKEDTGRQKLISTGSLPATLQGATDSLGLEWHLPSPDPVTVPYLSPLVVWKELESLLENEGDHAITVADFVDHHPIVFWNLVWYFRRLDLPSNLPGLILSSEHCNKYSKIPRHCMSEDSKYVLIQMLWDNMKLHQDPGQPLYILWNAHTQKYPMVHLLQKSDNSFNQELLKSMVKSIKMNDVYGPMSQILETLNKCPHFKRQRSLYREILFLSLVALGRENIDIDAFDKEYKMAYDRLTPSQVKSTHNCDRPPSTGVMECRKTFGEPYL
# UniProt Q8NHQ9: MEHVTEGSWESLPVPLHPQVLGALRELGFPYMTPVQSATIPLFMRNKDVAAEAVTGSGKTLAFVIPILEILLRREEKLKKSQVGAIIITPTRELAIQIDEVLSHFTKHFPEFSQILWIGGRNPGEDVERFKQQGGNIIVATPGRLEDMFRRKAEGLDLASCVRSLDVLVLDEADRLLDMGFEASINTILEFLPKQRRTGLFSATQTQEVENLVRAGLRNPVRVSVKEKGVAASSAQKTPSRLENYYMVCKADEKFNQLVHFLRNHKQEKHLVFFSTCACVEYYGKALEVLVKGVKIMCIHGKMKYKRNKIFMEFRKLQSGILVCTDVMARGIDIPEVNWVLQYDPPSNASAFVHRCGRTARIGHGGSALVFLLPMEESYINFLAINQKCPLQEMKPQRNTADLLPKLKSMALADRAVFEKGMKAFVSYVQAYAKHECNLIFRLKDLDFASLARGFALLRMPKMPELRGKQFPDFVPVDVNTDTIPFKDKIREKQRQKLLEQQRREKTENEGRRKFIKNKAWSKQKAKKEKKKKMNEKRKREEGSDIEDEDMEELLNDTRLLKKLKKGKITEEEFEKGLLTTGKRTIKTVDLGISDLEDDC
# UniProt Q16531, whole entry, looked up: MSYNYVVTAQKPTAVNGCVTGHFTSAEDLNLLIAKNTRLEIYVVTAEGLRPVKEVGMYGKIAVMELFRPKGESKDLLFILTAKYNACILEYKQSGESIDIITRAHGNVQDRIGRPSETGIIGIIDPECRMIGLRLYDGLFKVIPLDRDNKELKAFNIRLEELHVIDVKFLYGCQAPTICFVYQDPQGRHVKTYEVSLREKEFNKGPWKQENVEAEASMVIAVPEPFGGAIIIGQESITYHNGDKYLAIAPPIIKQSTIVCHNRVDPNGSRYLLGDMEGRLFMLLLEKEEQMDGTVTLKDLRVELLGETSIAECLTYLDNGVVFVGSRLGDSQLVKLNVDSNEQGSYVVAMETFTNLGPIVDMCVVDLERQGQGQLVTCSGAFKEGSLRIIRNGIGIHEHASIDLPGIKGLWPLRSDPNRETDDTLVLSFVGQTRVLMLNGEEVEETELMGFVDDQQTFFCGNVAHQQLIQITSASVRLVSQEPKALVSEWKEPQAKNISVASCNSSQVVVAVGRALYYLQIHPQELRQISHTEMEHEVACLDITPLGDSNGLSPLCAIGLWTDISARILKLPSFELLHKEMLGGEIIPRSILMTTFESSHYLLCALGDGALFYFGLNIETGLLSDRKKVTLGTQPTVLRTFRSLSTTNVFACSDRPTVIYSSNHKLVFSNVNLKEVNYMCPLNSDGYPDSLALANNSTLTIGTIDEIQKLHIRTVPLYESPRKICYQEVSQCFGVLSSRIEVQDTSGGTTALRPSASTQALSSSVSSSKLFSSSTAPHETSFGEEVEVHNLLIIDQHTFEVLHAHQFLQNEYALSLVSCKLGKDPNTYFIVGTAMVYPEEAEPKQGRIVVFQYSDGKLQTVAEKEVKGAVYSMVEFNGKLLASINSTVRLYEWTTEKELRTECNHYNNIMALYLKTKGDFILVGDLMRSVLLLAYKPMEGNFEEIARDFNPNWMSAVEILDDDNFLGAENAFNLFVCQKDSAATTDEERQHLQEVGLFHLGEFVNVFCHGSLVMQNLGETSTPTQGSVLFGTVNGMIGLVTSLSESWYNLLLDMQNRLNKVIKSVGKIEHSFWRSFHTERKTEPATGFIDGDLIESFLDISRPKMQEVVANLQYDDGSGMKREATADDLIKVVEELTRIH
# UniProt Q5H9U9: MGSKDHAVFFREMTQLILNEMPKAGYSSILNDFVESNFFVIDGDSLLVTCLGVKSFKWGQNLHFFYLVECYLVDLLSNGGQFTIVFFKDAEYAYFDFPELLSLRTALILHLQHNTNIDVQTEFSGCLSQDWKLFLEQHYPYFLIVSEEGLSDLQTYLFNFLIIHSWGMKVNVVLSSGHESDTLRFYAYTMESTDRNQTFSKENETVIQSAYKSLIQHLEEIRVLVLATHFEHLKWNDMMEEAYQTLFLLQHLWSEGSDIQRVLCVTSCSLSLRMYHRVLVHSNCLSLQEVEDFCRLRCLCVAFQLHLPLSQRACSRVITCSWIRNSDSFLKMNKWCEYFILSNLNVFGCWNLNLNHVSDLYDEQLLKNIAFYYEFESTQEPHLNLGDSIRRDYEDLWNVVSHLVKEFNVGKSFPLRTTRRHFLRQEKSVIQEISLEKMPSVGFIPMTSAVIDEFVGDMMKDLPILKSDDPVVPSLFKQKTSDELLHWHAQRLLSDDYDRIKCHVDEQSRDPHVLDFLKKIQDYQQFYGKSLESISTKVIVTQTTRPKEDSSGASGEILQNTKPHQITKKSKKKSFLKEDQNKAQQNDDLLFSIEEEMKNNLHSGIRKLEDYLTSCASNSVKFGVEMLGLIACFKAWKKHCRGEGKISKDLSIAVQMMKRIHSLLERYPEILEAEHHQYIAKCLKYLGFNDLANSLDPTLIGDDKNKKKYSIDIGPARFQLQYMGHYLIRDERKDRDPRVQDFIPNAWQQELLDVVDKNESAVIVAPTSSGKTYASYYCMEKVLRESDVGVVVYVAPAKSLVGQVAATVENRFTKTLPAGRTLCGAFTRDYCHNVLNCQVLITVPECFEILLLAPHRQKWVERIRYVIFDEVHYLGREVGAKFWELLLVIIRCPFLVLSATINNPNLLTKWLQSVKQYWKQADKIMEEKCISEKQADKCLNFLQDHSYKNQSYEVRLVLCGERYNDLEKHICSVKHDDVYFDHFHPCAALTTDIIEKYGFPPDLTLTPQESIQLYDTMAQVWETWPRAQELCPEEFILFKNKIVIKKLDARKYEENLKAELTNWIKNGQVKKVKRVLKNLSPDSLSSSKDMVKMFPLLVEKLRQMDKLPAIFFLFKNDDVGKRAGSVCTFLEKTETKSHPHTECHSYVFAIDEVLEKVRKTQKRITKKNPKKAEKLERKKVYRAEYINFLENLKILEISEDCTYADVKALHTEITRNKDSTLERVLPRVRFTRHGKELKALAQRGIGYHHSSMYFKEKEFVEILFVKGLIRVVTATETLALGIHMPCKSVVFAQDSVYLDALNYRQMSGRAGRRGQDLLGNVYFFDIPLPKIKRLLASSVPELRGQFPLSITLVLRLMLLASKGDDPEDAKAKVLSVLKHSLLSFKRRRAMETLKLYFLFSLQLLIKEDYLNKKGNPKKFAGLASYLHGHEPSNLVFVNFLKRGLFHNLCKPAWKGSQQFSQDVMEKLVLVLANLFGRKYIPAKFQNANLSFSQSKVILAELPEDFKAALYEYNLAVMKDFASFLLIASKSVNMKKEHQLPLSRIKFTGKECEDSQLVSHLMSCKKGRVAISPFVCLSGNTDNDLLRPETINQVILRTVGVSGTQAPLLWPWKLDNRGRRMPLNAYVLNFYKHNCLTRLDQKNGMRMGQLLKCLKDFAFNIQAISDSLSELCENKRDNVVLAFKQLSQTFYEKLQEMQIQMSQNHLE
# UniProt P17844: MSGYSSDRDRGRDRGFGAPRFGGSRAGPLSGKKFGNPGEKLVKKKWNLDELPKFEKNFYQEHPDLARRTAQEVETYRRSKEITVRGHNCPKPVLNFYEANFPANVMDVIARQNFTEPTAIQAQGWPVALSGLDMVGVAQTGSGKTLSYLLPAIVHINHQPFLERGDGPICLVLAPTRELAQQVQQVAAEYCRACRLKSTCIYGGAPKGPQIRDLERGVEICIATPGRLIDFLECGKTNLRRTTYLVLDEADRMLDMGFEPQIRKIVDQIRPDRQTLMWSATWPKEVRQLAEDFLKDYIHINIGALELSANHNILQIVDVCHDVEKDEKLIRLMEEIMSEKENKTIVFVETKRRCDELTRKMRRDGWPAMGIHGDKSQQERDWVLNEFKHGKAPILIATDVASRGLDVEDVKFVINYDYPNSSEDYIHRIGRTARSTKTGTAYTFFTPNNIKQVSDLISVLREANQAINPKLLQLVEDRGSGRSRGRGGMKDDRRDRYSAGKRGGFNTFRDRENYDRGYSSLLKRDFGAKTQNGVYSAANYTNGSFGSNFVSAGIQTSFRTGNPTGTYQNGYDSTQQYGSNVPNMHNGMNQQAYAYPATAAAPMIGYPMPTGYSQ
# UniProt O43583: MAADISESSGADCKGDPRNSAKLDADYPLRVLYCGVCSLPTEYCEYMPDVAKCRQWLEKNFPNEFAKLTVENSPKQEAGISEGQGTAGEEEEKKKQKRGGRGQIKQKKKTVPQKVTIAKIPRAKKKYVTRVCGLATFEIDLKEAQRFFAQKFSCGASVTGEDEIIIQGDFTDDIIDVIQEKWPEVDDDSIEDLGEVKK
# The other results are listed elsewhere or left out.
# Compound: Cc1cc(ccc1-c1ccccc1)C(=O)N1CCCN(CC1)C(=O)CCl [compound 10]
# Test: probe-labelled cysteine peptide fold change vs DMSO (competition) (log2 fold change); higher = less target engagement (more negative = stronger competition)
# Settings: 10 µM; THP-1; incubation time: 4 h
# 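Note: competitive profiling in live THP-1 cells: cysteine peptides tagged with an iodoacetamide desthiobiotin (IA-DTB) probe, intensity after compound treatment relative to DMSO-treated cells.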
row,Target,probe-labelled cysteine peptide fold change
1,DDX1_Q92499_513_MDQAIIFCR (UniProt Q92499),0.298
2,DDX52_Q9Y2R4_342_TGFRDQLASIFLACTSHK (UniProt Q9Y2R4),0.00973
3,DDX21_Q9NR30_291_KLSVACFYGGTPYGGQFER (UniProt Q9NR30),-0.199
4,DDX60_Q8IY21_1591_VAISPFVCLSGNFDDDLLRLETPNHVTLGTIGVNR (UniProt Q8IY21),-0.0822
5,DHRS7B_Q6IAN0_220_HATQAFFDCLR (UniProt Q6IAN0),-0.0211
6,DDX39A_O00148_299_CMALAQLLVEQNFPAIAIHR (UniProt O00148),-0.0992
7,DDX50_Q9BQ39_490_TGICICFYQPR (UniProt Q9BQ39),-0.017
8,DENND4A_Q7Z401_35_PLEEEIHFNDACHK (UniProt Q7Z401),-0.0984
9,DGCR8_Q8WYQ5_352_KHDPPLSSIPCLHYK (UniProt Q8WYQ5),-0.0269
10,DDX6_P26196_361_ISQLGYSCFYIHAK (UniProt P26196),-0.0144
11,DGKZ_Q13574_793_AIPVQVDGEPCK (UniProt Q13574),0.124
12,DDX55_Q8NHQ9_161_AEGLDLASCVR (UniProt Q8NHQ9),0.187
13,DDB1_Q16531_725+732_KICYQEVSQCFGVLSSR (UniProt Q16531),-0.0943
14,DENND3_A2RUS2_1094_DTSTSFLAFQLLPEEEQLWAACAGR (UniProt A2RUS2),1.07
15,DDX42_Q86XP3_346_ELCQQIHAECKR (UniProt Q86XP3),0.138
16,DDB1_Q16531_652_SLSTTNVFACSDRPTVIYSSNHK (UniProt Q16531),0.0765
17,DDX17_Q92841_319_RCTYLVLDEADR (UniProt Q92841),-0.00104
18,DDX18_Q9NVP1_407_ANATVDGLEQGYVVCPSEKR (UniProt Q9NVP1),-0.283

row,Target,probe-labelled cysteine peptide fold change
1,DDX60L_Q5H9U9_1127_AGSVCTFLEK (UniProt Q5H9U9),-0.0904
2,DDHD2_O94830_207_GVENISVDIHCGEPLQIDHLVFVVHGIGPACDLR (UniProt O94830),0.069
3,DDX56_Q9NY93_185_SLLCHLPR (UniProt Q9NY93),0.611
4,DDX20_Q9UHI6_98_CGLDLIVQAK (UniProt Q9UHI6),-0.0986
5,DDX31_Q9H8H2_624_IGCHGSSLLILAPSEAEYVNSLASHK (UniProt Q9H8H2),0.0659
6,DDX6_P26196_102_GNEFEDYCLK (UniProt P26196),-0.219
7,DDX5_P17844_221_GVEICIATPGR (UniProt P17844),0.578
8,DDX31_Q9H8H2_413_DITVILNAVNAECQK (UniProt Q9H8H2),0.0501
9,DECR1_Q16698_116_VHAIQCDVR (UniProt Q16698),-0.122
10,DDX41_Q9UJV9_338_MVSLDICR (UniProt Q9UJV9),-0.0253
11,DENR_O43583_13_AADISESSGADCK (UniProt O43583),-0.127
12,DENND6A_Q8IWF6_130_VSLHCLLDQFDK (UniProt Q8IWF6),0.295
13,DDX31_Q9H8H2_660_MEDILCVLTR (UniProt Q9H8H2),-0.245
14,DDX1_Q92499_544_KGHQFSCVCLHGDR (UniProt Q92499),0.0322
15,DDX54_Q8TDD1_73_LGPGRPLPTFPTSECTSDVEPDTR (UniProt Q8TDD1),-0.0432
16,DDX3X_O00571_468_GADSLEDFLYHEGYACTSIHGDR (UniProt O00571),0.113
17,DDX3Y_O15523_62_DSSGWSCSK (UniProt O15523),-0.368

# Same assay, conditions: 50 µM; THP-1; incubation time: 4 h
row,Target,probe-labelled cysteine peptide fold change
1,DDX1_Q92499_513_MDQAIIFCR (UniProt Q92499),0.237
2,DDX52_Q9Y2R4_342_TGFRDQLASIFLACTSHK (UniProt Q9Y2R4),0.189
3,DDX21_Q9NR30_291_KLSVACFYGGTPYGGQFER (UniProt Q9NR30),-0.636
4,DDX60_Q8IY21_1591_VAISPFVCLSGNFDDDLLRLETPNHVTLGTIGVNR (UniProt Q8IY21),-0.281
5,DHRS7B_Q6IAN0_220_HATQAFFDCLR (UniProt Q6IAN0),0.0381
6,DDX39A_O00148_299_CMALAQLLVEQNFPAIAIHR (UniProt O00148),0.289
7,DDX50_Q9BQ39_490_TGICICFYQPR (UniProt Q9BQ39),-0.522
8,DENND4A_Q7Z401_35_PLEEEIHFNDACHK (UniProt Q7Z401),-0.131
9,DGCR8_Q8WYQ5_352_KHDPPLSSIPCLHYK (UniProt Q8WYQ5),0.00272
10,DDX6_P26196_361_ISQLGYSCFYIHAK (UniProt P26196),0.339
11,DGKZ_Q13574_793_AIPVQVDGEPCK (UniProt Q13574),0.034
12,DDX55_Q8NHQ9_161_AEGLDLASCVR (UniProt Q8NHQ9),0.31
13,DDB1_Q16531_725+732_KICYQEVSQCFGVLSSR (UniProt Q16531),-0.169
14,DENND3_A2RUS2_1094_DTSTSFLAFQLLPEEEQLWAACAGR (UniProt A2RUS2),1.16
15,DDX42_Q86XP3_346_ELCQQIHAECKR (UniProt Q86XP3),0.04
16,DDB1_Q16531_652_SLSTTNVFACSDRPTVIYSSNHK (UniProt Q16531),0.229
17,DDX17_Q92841_319_RCTYLVLDEADR (UniProt Q92841),0.178
18,DDX18_Q9NVP1_407_ANATVDGLEQGYVVCPSEKR (UniProt Q9NVP1),0.127

row,Target,probe-labelled cysteine peptide fold change
1,DDX60L_Q5H9U9_1127_AGSVCTFLEK (UniProt Q5H9U9),0.191
2,DDHD2_O94830_207_GVENISVDIHCGEPLQIDHLVFVVHGIGPACDLR (UniProt O94830),-0.218
3,DDX56_Q9NY93_185_SLLCHLPR (UniProt Q9NY93),0.666
4,DDX20_Q9UHI6_98_CGLDLIVQAK (UniProt Q9UHI6),-0.579
5,DDX31_Q9H8H2_624_IGCHGSSLLILAPSEAEYVNSLASHK (UniProt Q9H8H2),-0.294
6,DDX6_P26196_102_GNEFEDYCLK (UniProt P26196),-0.0192
7,DDX5_P17844_221_GVEICIATPGR (UniProt P17844),0.211
8,DDX31_Q9H8H2_413_DITVILNAVNAECQK (UniProt Q9H8H2),0.157
9,DECR1_Q16698_116_VHAIQCDVR (UniProt Q16698),0.199
10,DDX41_Q9UJV9_338_MVSLDICR (UniProt Q9UJV9),-0.0851
11,DENR_O43583_13_AADISESSGADCK (UniProt O43583),-0.381
12,DENND6A_Q8IWF6_130_VSLHCLLDQFDK (UniProt Q8IWF6),1.1
13,DDX31_Q9H8H2_660_MEDILCVLTR (UniProt Q9H8H2),0.115
14,DDX1_Q92499_544_KGHQFSCVCLHGDR (UniProt Q92499),-0.0152
15,DDX54_Q8TDD1_73_LGPGRPLPTFPTSECTSDVEPDTR (UniProt Q8TDD1),-0.0456
16,DDX3X_O00571_468_GADSLEDFLYHEGYACTSIHGDR (UniProt O00571),0.119
17,DDX3Y_O15523_62_DSSGWSCSK (UniProt O15523),-0.59
